Source: publication PMC9340540
No constants are given. Whether binding was seen depends on the method and setting. Binding seen in cells or lysates may run through a third protein. Binding calls can cover weak binding; strength is not graded here.

Target: CHN-1::FLAG (C. elegans)
Assay: co-IP; lysate of young adult worms expressing CHN-1::FLAG, anti-FLAG magnetic beads, 4°C 2 h; N2 lysate as negative control; blots with anti-AHCY-1 and anti-FLAG

binding: binds
B1: AHCY-1 (enzyme, UniProt P27604 1-437)
chain: MAQSKPAYKVADIKLADFGRKEIILAENEMPGLMAMRSKYGPSQPLKGARIAGCLHMTIQTAVLIETLTALGAEVQWSSCNIFSTQDHAAAAIAQTGVPVYAWKGETDEEYEWCIEQTIVFKDGQPLNMILDDGGDLTNLVHAKYPQYLAGIRGLSEETTTGVHNLAKMLAKGDLKVPAINVNDSVTKSKFDNLYGIRESLPDGIKRATDVMLAGKVAVVAGYGDVGKGSAASLKAFGSRVIVTEIDPINALQAAMEGYEVTTLEEAAPKANIIVTTTGCKDIVTGKHFELLPNDAIVCNVGHFDCEIDVKWLNTNATKKDTIKPQVDRYTLKNGRHVILLAEGRLVNLGCATGHPSFVMSNSFTNQVLAQVELWTKFGTPQEYKLGLYVLPKTLDEEVAYLHLAQLGVKLTKLSDEQASYLGVPVAGPYKPDHYRY
